{"source": "patent US5605911A", "about": "“Use of alpha-2 adrenergic drugs to prevent adverse effects of NMDA receptor hypofunction (NRH)” (priority 1995, dated 1997)", "origin": "cited, not measured here", "tested_on": "neurotoxic side effects caused by NMDA antagonists such as PCP or MK-801", "details": "in vivo; cited from earlier work"}
{"smiles": "CN1[C@@H]2CC[C@H]1C[C@@H](OC(=O)C(CO)c1ccccc1)C2", "note": "(stereo partly drawn) [atropine]", "values": [{"measurement": "block of neurotoxic side effects caused by NMDA antagonists", "value": "can block the neurotoxic side effects caused by NMDA antagonists"}]}
{"smiles": "CN1[C@@H]2C[C@@H](OC(=O)[C@H](CO)c3ccccc3)C[C@H]1[C@@H]1O[C@@H]12", "note": "[scopolamine]", "values": [{"measurement": "block of neurotoxic side effects caused by NMDA antagonists", "value": "can block the neurotoxic side effects caused by NMDA antagonists"}]}
{"smiles": "CN(C)CCOC(c1ccccc1)c1ccccc1", "note": "[diphenhydramine]", "values": [{"measurement": "block of neurotoxic side effects caused by NMDA antagonists", "value": "can block the neurotoxic side effects caused by NMDA antagonists"}]}
